Assay results from publication doi:10.1101/2022.07.27.501694.
Read-outs that look alike come from different tables or passages of the source. No constants are given. Whether binding was seen depends on the method and setting. For some assays here: Binding seen in cells or lysates may run through a third protein. Some results given as binding are weak or reduced against the parent protein; the word gives no strength. Blank lines part the entries; values can stand above or below the substance they belong to.

The chains behind the UniProt entries cited, without tags or fusion partners. Where a name states a change or a piece, a line headed by the entry shows the natural chain unless it says otherwise. A line that says so, or that is headed by a name, gives the form on record, which may keep a tag or linker. Residues count along the entry.
UniProt O00214: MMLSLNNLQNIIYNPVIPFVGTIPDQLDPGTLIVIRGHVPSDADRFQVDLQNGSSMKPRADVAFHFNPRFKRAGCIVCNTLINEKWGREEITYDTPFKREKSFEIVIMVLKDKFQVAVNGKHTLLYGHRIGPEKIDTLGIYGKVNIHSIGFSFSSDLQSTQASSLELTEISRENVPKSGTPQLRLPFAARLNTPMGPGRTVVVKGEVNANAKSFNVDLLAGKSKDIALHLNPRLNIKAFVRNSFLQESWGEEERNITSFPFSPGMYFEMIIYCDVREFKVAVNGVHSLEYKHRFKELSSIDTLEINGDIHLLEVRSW
UniProt Q8NHJ6: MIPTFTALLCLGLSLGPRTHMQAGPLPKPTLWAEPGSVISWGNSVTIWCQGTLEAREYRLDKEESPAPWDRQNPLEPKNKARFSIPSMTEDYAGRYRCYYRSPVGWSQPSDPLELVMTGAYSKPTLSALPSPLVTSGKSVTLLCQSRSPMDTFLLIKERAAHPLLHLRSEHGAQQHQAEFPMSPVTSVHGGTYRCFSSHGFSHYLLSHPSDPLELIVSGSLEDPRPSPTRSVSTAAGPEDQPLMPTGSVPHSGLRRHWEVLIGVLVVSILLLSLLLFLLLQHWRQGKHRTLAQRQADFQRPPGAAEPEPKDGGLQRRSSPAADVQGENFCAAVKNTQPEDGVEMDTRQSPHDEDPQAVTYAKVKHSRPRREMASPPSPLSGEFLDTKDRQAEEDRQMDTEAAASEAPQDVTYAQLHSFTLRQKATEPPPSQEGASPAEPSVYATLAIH
HA-tagged LILRB4: residues 22-448 of Q8NHJ6

Assays:
[1] = biological target: recombinant protein Galectin-8 (human) (UniProt O00214); assay: ELISA
[2] = biological target: recombinant protein Galectin-8 (human) (UniProt O00214); assay: ELISA; remark: listed apart in the source
HA-tagged LILRB4 [3] = biological target: HA-tagged LILRB4 (UniProt Q8NHJ6); assay: co-IP
HA-tagged LILRB4 [4] = biological target: HA-tagged LILRB4 (UniProt Q8NHJ6); assay: flow cytometry on cells
[5] = biological target: Fc-tagged LILRB4 ECD protein (UniProt Q8NHJ6); assay: cross-linking

binding [1]: binds
binding [2]: binds
Substance: Fc-tagged LILRB4 ECD protein (from UniProt Q8NHJ6 22-259) (Fc fusion)

binding (HA-tagged LILRB4 [3]): binds
Substance: Flag-tagged Galectin 8 (from UniProt O00214 1-317)

binding (HA-tagged LILRB4 [4]): binds
binding [5]: binds
Substance: recombinant protein Galectin-8 (from UniProt O00214 1-317) (ligand)
